Assay: general procedure: Fmoc solid-phase peptide synthesis; 2-chlorotrityl chloride resin; N,N'-diisopropylcarbodiimide / 1-hydroxybenzotriazole; HATU/DIPEA for cyclisatio
Settings: whole synthesis

Row | Substance | isolated mass
1 | cyclo-L-[Lys-Leu-Val-Phe-Phe] | 0.31 mg

Same assay, conditions: whole synthesis, scale of the general procedure 0.034 mmol

Row | Substance | isolated yield
2 | cyclo-D-[Lys-Leu-Val-(4-(5-pyrimidine)-Ph)Ala-Phe] | 0.4%
3 | cyclo-D-[Lys-Leu-Val-(3-bi-Ph)Ala-Phe] | 2.7%
4 | cyclo-D-[Lys-Leu-Val-(2-bi-Ph)Ala-Phe] | 3.0%
5 | cyclo-D-[Lys-Leu-Val-(4-(3-Py)-Ph)Ala-Phe] | 1.3%
6 | cyclo-D-[Lys-Leu-Ala-Phe-Phe] | 2.5%
7 | cyclo-D-[Lys-Ala-Val-Phe-Phe] | 1.8%
8 | cyclo-D-[Lys-Leu-Val-(1-Nal)-Phe] | 21%
9 | cyclo-D-[Lys-Leu-Val-Ala-Phe] | 0.4%
10 | cyclo-D-[Ala-Leu-Val-Phe-Phe] (ALVFF; cyclic, D-amino acids; cyclopeptide) | 1.3%
11 | cyclo-D-[Lys-Leu-Val-(4-bi-Ph)Ala-Phe] | 1.9%
12 | cyclo-D-[Lys-Leu-Val-Phe-Ala] | 2.2%
13 | cyclo-D-[Lys-Leu-Val-(4-(4-Py)-Ph)Ala-Phe] | 2.2%
14 | cyclo-D-[Lys-Leu-Val-Phe-Phe] | 5.2%
15 | cyclo-D-[Lys-Leu-Val-(4-(2-Py)-Ph)Ala-Phe] | 2.2%
16 | cyclo-D-[Lys-Leu-Val-Phe(βPh)-Phe] | 10.9%
17 | cyclo-L-[Lys-Leu-Val-Phe-Phe] | 1.4%
18 | cyclo-D-[Lys-Leu-Val-(4-(3-phenol)-Ph)Ala-Phe] | 1.6%

— US9745349B2 (JAPAN SCIENCE AND TECHNOLOGY AGENCY, priority 2012, dated 2017)
